Test results: US20030087942A1, “Method for the treatment and prevention of cachexia” (Washington University, priority 2001, published 2003)

Tests used:
[1] = fasted for 16 h following LPS administration
corticosterone = details: 3 h and 16 h after LPS
[2] = 24 h period following LPS; 300 μg/dose (10 mg/kg) gavage
[3] = without LPS; gavage; indomethacin 150 μg/dose, Compound 1 and Compound 2 300 μg/dose (10 mg/kg)
Procedure: (§1) Animal housing. […] For pharmacological inhibitor studies, male C3H/HeN mice (Harlan Sprague Dawley, Inc., Indianapolis, Ind.) 10-12 wks of age were evaluated according to the method of Gross et al., Am J Physiol 278: R1415-23, 2000. See also Silver et al., J Clin Invest 95: 725-31, 1995. […] Control mice designated “WT” for the COX KO experiments were WT and heterozygous littermates arising from the COX-2 heterozygous matings. All mouse protocols were in accordance with NIH guidelines and approved by the Animal Care and Use Committee of Washington University School of Medicine.

LPS-induced weight loss = type: in vivo, mice (C3H/HeN)
Procedure: as §1

| SMILES | weight loss vs. vehicle, mice fasted after LPS [1] | magnitude or duration of adrenal activation (plasma corticosterone) vs. LPS alone (corticosterone) | increase of food intake in comparison to mice receiving LPS alone [2] [%] | change in body weight relative to vehicle-treated control mice [3] | weight loss associated with LPS administration, vs. vehicle/LPS (LPS-induced weight loss; 100 μg LPS i.p., gavage 30 min before, 8 and 24 h after LPS, indomethacin 150 μg/dose, Compound 1 300 μg/dose) | weight loss relative to the vehicle/LPS and Compound 2/LPS groups (LPS-induced weight loss; one day after LPS treatment, 300 μg/dose (10 mg/kg) gavage) |
| --- | --- | --- | --- | --- | --- | --- |
| NS(=O)(=O)c1ccc(-n2nc(C(F)(F)F)cc2-c2ccc(Cl)cc2)cc1 [Compound 1] | identical weight loss | no difference | 50 | no change in body weight | significantly attenuated weight loss | approximately 50% |
| COc1ccc(-n2nc(C(F)(F)F)cc2-c2ccc(Cl)cc2)cc1 [Compound 2, reference compound] |  |  |  | no change in body weight |  |  |
